Results: the supplement of paper PMC10849652
The other results are listed elsewhere or left out.

Sequences of proteins named here, by UniProt entry; tags and fusion partners are left off. A change or cut given only in a name is not applied to a line headed by its entry.
UniProt O95813: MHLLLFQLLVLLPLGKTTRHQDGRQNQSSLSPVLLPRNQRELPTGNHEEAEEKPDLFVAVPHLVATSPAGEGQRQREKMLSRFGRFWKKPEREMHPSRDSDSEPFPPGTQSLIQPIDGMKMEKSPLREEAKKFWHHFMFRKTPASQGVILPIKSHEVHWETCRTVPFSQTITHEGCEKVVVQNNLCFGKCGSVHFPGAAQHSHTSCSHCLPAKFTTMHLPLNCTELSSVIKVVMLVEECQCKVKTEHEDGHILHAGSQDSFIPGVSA
UniProt Q6IPU0: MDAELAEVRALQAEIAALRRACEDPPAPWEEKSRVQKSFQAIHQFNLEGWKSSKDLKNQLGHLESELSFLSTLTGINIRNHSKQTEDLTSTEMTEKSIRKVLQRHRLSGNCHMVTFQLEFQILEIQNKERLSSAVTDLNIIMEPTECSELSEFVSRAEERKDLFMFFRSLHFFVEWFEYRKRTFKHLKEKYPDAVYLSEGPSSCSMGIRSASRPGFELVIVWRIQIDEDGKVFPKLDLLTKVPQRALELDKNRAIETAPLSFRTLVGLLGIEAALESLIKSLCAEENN
UniProt A8MT69: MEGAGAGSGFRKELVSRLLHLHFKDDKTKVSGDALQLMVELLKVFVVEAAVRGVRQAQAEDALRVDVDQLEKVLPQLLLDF
UniProt Q86WJ1: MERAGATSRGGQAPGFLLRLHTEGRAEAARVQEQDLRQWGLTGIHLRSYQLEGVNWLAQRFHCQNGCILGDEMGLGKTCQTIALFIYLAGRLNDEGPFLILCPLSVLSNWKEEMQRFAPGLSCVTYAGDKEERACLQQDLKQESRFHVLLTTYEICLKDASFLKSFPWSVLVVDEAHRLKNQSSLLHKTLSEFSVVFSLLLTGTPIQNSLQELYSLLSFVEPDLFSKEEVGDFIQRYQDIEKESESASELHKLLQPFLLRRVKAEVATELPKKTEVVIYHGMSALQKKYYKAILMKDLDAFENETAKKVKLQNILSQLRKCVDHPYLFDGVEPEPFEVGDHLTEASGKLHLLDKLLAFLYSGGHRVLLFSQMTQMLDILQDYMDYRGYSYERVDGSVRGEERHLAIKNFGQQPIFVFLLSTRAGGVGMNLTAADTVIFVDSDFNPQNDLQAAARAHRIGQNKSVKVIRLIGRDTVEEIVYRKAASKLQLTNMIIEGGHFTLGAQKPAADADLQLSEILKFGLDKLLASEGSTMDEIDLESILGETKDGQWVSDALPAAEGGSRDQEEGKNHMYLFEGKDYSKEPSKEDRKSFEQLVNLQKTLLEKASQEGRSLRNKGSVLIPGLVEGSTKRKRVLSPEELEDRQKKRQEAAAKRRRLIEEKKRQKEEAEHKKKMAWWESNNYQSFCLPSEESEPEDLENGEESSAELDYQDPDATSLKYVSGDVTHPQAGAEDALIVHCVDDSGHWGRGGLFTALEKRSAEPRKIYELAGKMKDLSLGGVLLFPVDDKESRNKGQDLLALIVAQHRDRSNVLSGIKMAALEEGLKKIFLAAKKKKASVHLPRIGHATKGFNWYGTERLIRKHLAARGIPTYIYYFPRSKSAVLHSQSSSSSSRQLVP
UniProt Q02224: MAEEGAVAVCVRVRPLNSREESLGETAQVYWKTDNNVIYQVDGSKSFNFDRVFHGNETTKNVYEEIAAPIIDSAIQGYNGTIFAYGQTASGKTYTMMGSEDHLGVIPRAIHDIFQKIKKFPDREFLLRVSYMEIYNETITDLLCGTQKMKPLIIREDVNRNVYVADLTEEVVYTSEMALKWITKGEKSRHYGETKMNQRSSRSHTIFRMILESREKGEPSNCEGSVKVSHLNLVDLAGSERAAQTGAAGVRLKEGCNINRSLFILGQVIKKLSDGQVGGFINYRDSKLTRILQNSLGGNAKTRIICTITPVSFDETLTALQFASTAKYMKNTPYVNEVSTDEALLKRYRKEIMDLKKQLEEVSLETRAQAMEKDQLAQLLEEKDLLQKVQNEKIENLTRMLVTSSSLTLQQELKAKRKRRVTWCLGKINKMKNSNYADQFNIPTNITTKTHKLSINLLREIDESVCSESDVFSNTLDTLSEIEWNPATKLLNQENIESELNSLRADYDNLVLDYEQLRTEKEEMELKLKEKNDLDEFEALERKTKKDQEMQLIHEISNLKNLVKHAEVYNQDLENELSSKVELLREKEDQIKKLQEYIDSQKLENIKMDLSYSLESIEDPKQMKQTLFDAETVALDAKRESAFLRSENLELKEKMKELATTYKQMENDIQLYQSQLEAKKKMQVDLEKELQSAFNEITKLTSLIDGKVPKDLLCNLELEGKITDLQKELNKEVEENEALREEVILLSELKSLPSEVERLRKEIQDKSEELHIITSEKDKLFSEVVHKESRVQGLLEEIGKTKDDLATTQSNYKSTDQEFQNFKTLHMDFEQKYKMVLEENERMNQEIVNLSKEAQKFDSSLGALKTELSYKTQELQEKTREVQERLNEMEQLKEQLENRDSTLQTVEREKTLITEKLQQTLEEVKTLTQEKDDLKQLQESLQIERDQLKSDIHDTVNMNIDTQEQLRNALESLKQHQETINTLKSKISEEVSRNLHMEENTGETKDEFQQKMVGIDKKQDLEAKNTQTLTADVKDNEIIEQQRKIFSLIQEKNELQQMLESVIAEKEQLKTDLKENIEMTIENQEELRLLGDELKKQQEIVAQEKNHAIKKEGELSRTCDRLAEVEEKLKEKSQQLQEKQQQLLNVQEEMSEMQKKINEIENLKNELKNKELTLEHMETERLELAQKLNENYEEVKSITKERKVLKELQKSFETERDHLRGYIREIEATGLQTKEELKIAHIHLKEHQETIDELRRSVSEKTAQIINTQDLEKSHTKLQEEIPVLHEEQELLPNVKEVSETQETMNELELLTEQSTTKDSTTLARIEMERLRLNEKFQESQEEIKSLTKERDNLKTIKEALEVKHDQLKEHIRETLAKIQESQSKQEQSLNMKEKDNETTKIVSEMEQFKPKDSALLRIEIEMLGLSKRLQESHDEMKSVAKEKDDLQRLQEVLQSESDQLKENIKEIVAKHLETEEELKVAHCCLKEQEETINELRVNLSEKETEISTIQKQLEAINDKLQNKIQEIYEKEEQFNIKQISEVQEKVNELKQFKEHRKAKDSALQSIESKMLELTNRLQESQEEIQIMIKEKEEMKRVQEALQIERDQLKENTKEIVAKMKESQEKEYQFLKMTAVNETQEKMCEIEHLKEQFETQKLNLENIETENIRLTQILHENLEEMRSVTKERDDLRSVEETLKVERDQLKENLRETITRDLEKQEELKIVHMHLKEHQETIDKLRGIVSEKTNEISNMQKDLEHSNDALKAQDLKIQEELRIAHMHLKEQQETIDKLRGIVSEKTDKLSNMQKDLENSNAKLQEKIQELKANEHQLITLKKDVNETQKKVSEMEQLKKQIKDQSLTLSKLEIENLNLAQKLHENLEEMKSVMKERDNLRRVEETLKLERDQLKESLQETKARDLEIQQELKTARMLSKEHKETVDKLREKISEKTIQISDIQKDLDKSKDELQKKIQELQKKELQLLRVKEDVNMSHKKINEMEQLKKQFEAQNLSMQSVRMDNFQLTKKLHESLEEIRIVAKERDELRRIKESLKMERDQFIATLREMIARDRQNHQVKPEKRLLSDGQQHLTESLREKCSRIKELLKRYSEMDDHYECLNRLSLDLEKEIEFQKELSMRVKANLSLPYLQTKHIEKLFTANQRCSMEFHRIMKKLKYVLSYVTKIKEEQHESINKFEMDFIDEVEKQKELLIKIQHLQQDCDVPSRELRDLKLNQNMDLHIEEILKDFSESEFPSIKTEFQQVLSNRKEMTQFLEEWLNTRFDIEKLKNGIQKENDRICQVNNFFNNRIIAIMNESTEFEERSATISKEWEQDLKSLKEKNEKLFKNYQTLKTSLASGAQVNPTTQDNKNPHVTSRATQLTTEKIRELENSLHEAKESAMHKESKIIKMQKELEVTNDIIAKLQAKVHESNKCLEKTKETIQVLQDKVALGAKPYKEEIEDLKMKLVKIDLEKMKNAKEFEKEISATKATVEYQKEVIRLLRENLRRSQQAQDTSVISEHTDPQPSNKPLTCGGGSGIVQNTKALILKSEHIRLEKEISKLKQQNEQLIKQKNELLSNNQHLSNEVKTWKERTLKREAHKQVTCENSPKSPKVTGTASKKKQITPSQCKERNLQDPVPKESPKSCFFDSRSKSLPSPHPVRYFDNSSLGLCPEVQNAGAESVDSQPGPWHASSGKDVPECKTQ
UniProt Q9BRQ6: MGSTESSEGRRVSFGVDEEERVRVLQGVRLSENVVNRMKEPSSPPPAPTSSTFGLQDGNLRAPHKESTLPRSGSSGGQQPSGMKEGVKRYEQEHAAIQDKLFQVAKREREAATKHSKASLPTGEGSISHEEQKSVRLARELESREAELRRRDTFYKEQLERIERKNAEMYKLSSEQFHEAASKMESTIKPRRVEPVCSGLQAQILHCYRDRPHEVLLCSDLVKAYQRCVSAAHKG
UniProt Q49AH0, whole entry, looked up: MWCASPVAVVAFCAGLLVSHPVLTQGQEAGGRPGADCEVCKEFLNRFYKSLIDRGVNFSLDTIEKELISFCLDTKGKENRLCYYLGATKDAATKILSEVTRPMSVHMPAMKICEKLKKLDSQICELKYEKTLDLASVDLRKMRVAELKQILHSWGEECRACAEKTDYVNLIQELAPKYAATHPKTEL
UniProt O14646: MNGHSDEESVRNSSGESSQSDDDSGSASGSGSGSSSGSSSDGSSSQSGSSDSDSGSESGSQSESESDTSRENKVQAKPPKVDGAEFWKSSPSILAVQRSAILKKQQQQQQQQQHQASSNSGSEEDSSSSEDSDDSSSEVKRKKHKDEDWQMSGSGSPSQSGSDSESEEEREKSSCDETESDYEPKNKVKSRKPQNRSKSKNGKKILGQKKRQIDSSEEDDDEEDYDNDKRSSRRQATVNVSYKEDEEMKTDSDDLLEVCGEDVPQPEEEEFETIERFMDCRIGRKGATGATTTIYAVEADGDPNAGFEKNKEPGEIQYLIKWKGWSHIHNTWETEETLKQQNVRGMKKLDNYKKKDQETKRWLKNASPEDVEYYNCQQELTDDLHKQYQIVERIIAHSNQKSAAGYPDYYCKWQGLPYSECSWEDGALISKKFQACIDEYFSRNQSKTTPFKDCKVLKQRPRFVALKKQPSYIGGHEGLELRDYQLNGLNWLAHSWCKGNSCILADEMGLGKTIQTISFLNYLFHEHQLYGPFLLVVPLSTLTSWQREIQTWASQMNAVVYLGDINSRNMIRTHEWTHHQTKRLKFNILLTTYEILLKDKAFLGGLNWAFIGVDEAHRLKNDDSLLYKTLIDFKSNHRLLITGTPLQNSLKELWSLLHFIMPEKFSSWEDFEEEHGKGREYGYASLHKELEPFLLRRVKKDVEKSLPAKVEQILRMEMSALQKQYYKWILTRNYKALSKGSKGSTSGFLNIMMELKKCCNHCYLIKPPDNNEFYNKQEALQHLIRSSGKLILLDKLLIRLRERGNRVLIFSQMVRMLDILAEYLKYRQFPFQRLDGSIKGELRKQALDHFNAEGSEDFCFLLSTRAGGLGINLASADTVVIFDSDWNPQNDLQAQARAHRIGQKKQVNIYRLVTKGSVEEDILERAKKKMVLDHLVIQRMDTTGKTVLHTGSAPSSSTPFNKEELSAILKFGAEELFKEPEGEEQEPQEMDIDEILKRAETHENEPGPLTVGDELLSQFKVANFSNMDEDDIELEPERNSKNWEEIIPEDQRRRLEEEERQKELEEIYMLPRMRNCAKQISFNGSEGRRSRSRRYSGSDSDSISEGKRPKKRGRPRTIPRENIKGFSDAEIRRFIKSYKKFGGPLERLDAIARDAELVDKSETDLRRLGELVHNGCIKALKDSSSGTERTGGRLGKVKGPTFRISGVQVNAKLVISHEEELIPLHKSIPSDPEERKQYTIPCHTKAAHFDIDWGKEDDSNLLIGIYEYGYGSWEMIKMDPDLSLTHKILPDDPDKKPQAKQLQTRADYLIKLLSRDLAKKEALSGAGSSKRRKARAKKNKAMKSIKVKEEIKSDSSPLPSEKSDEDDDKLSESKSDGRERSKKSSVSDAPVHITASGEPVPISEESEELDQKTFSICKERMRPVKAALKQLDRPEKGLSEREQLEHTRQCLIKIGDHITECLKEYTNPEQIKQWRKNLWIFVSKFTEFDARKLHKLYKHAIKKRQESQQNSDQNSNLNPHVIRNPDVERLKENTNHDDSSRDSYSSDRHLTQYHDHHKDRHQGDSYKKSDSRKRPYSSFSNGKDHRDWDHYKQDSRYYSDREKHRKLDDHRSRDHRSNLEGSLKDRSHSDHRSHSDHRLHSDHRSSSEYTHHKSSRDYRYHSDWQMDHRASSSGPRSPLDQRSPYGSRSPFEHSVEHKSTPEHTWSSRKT
UniProt O14613: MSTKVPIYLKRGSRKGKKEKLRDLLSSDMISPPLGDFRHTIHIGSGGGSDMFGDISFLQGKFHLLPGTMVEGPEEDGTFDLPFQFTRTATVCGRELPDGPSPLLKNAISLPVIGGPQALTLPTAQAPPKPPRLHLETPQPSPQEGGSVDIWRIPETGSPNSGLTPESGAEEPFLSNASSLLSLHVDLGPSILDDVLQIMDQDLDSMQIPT

Key:
Test in all cases: log2 fold change, soluble protein after heating vs DMSO (PISA); higher = thermal stabilisation; K562 cells, 10 uM, 30 min; active = over 0.2 and 3.5 SD of the protein, either way, in both replicates (recomputed)
[1] = compound: CC[C@@H]1C(=O)N(C)c2cnc(Nc3ccc(C(=O)N[C@H]4CC[C@H](N5CCN(CC6CC6)CC5)CC4)cc3OC)nc2N1C(C)C [volasertib]
Procedure, shortened: (§1)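 K562 cells at 2×10^6 cells/mL were treated with 10 μM compound for 30 min. Aliquots were heated for 3 min across 48°C-58°C, pooled, and extracted in PBS with 0.5% NP-40 at 4°C; soluble protein was the supernatant after 21,000xg for 90 min. Soluble protein was quantified by TMTpro 16plex LC-MS/MS with channel sums equalised, and reported as log2 fold change in thermal stability against DMSO controls, with values from duplicates.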

[2] = compound: CC[C@H](C)[C@@H](C(=O)N[C@@H]([C@@H](C)O)C(=O)N[C@@H](CC(C)C)C(=O)[C@]1(CO1)C)NC(=O)[C@H]([C@@H](C)CC)N(C)C(=O)C [epoxomicin]
Procedure, shortened: as §1

[3] = compound: CCn1c(C(=O)N(C2CC2)C2CC2)cc2c3c(ncn3C)c(Nc3cc(C)n(C)n3)nc21
Procedure, shortened: as §1

[4] = compound: CN1C2=C(C3=C1C(=O)N(N=C3)CC4=CC(=CC=C4)N)SC(=C2)S(=O)C
Procedure, shortened: as §1

[5] = compound: CN1CCN(CCOc2cc(OC3CCOCC3)c3c(Nc4c(Cl)ccc5c4OCO5)ncnc3c2)CC1 [saracatinib]
Procedure, shortened: as §1

[6] = compound: CN1CCN(c2nc(C3=C(c4c[nH]c5ccccc45)C(=O)NC3=O)c3ccccc3n2)CC1 [sotrastaurin]
Procedure, shortened: as §1

[7] = compound: CN1CCc2c(c3ccccc3n2Cc2ccc(C(=O)NO)cc2)C1 [Tubastatin A]
Procedure, shortened: as §1

[8] = compound: CNC(=O)C1=CC=CC=C1NC2=NC(=NC=C2Cl)NC3=C(C=C(C=C3)N4CCOCC4)OC
Procedure, shortened: as §1

[9] = compound: CNc1nc(-c2ccc3c(N)n[nH]c3c2)cc(N2C[C@@H](C(=O)NC3CCCCC3)CC[C@H]2C)n1
Procedure, shortened: as §1

[10] = compound: CCn1cc(-c2ccnc3[nH]c(-c4cccc(CN(C)C)c4)cc23)c(-c2ccc(NC(=O)N(C)C)cc2)n1
Procedure, shortened: as §1

[11] = compound: CN1CCC(CNc2ccc3ncc(-c4cccc(OC(F)(F)F)c4)n3n2)CC1
Procedure, shortened: as §1

[12] = compound: CN(CCOC1=CC=C(C=C1)C[C@H]2C(=O)NC(=O)S2)C3=CC=CC=N3 (racemic) [rosiglitazone]
Procedure, shortened: as §1

[13] = compound: CC[C@H](C)N1C=C(C2=C(C=C(C=C21)C3=CN=C(C=C3)N4CCNCC4)C(=O)NCC5=C(C=C(NC5=O)C)C)C
Procedure, shortened: as §1

[14] = compound: CN1CC[C@H](c2c(O)cc(O)c3c(=O)cc(-c4ccccc4Cl)oc23)[C@H](O)C1 [alvocidib]
Procedure, shortened: as §1

[15] = compound: CN(C)CC(=O)Nc1ccc2[nH]c(=O)c3ccccc3c2c1
Procedure, shortened: as §1

[16] = compound: CNC(=O)c1ccc(Nc2ncc(C(F)(F)F)c(NCc3nccnc3N(C)S(C)(=O)=O)n2)cc1 [defactinib]
Procedure, shortened: as §1

[17] = compound: COC(=O)[C@H](CCSC)NC(=O)C1=C(C=C(C=C1)NC[C@H](CS)N)C2=CC=CC=C2
Procedure, shortened: as §1

[18] = compound: CC[C@@H]1C(=O)N(C)c2cnc(Nc3ccc(C(=O)NC4CCN(C)CC4)cc3OC)nc2N1C1CCCC1
Procedure, shortened: as §1

[19] = compound: CNCc1ccc(-c2[nH]c3cc(F)cc4c3c2CCNC4=O)cc1 [rucaparib]
Procedure, shortened: as §1

[20] = compound: COC(=O)N[C@@H](C)CNc1nccc(-c2cn(C(C)C)nc2-c2cc(Cl)cc(NS(C)(=O)=O)c2F)n1 [encorafenib]
Procedure, shortened: as §1

Measured: log2 fold change

CENPU (UniProt Q71F23)
inactive: [1] -0.209 | [2] 0.007 | [3] -0.234 | [4] 0.193 | [5] 0.151 | [6] 0.1 | [7] 0.043 | [8] 0.152 | [9] 0.178

CER1 (UniProt O95813)
inactive: [10] 1.5 | [11] -0.024

CEP170 isoform 3 (UniProt Q5SW79)
inactive: [3] 0.183 | [12] 0.249 | [8] -0.109

CHMP2A (UniProt M0R1T5)
inactive: [1] 0.052 | [7] 0.086

CDC6 (UniProt Q99741)
inactive: [2] 0.16 | [4] 0.165 | [5] 0.183 | [9] 0.185

CDH13 isoform 4 (UniProt P55290)
inactive: [4] -0.138 | [5] -0.181 | [9] 0.107

CENPJ (UniProt Q9HC77)
inactive: [1] -0.105 | [2] -0.013 | [3] 0.021 | [6] 0.034 | [7] 0.149 | [8] -0.08

CENPP (UniProt Q6IPU0)
inactive: [1] 0.086 | [13] 0.13 | [2] -0.062 | [3] -0.168 | [10] -0.023 | [12] -0.049 | [4] -0.027 | [11] 0.14 | [5] -0.056 | [14] -0.091 | [7] -0.004 | [8] -0.041 | [9] 0.096

CDC7 (UniProt O00311)
inactive: [15] -0.036 | [16] -0.166 | [17] 0.142

CDH2 (UniProt P19022)
inactive: [1] -0.245 | [10] 0.134 | [11] 0.13

Taken from the results shown (2 entries):
CENPJ (UniProt Q9HC77)
inactive: [1] -0.105 | [2] -0.013 | [3] 0.021 | [6] 0.034 | [7] 0.149 | [8] -0.08

CENPP (UniProt Q6IPU0)
inactive: [1] 0.086 | [13] 0.13 | [2] -0.062 | [3] -0.168 | [10] -0.023 | [12] -0.049 | [4] -0.027 | [11] 0.14 | [5] -0.056 | [14] -0.091 | [7] -0.004 | [8] -0.041 | [9] 0.096

(further entries)

CDC42EP3 (UniProt Q9UKI2)
inactive: [2] 0.124 | [3] 0.217 | [8] -0.232

CHCHD5 (UniProt Q9BSY4)
inactive: [1] -0.059 | [13] 0.054 | [3] -0.003 | [12] -0.069 | [6] -0.171 | [14] -0.076 | [8] -0.032

CDS1 (UniProt Q92903)
inactive: [2] -0.019 | [3] 0.048 | [12] 0.03 | [4] 0.03 | [5] 0.094 | [14] 0.04 | [8] -0.128 | [9] 0.115

CDT1 (UniProt Q9H211)
inactive: [2] 0.99

CENPX (UniProt A8MT69)
inactive: [18] 0.003 | [3] -0.181 | [6] -0.132 | [8] 0.068 | [19] -0.046 | [20] -0.172

CEP131 (UniProt Q9UPN4)
inactive: [1] 0.063 | [2] -0.135 | [3] -0.043 | [10] -0.067 | [4] 0.086 | [11] 0.085 | [5] -0.18 | [6] 0.07 | [14] 0.061 | [7] 0.069 | [8] -0.074 | [9] -0.14

CHD1L (UniProt Q86WJ1)
inactive: [10] -0.106 | [15] -0.125 | [11] -0.116 | [6] 0.086 | [16] 0.005 | [17] 0.228

CEBPZ (UniProt Q03701)
inactive: [10] -0.137 | [15] 0.049 | [4] 0.161 | [11] 0.053 | [5] -0.163 | [6] 0.147 | [14] -0.005 | [7] 0.01 | [16] 0 | [9] 0.071 | [17] -0.193

CENPE (UniProt Q02224)
inactive: [1] 0.137 | [10] -0.039 | [15] -0.061 | [4] -0.255 | [11] 0.192 | [5] 0.318 | [6] -0.19 | [7] 0.091 | [8] -0.277 | [16] -0.056 | [9] 0.399 | [17] 0.198

CHCHD6 (UniProt Q9BRQ6)
inactive: [1] -0.033 | [13] 0.009 | [2] 0.041 | [3] -0.039 | [10] -0.014 | [15] 0.077 | [12] 0.297 | [4] -0.027 | [11] -0.084 | [5] -0.057 | [6] 0.025 | [14] -0.028 | [7] -0.052 | [8] -0.035 | [16] -0.073 | [9] -0.069 | [17] -0.169

CELSR2 (UniProt Q9HCU4)
inactive: [14] 0.025

CFAP97 (UniProt Q9P2B7)
inactive: [1] 0.114 | [2] 0.006 | [3] -0.062 | [10] 0.027 | [15] -0.082 | [12] -0.049 | [4] -0.021 | [11] -0.131 | [5] -0.059 | [6] -0.018 | [14] 0.146 | [7] 0 | [8] -0.018 | [16] 0.059 | [9] 0.059 | [17] 0.038

CDNF (UniProt Q49AH0)
inactive: [15] 0.125 | [4] -0.222 | [5] 0.056 | [16] -0.029 | [9] 0.056 | [17] 0.1

CHD8 (UniProt Q9HCK8)
inactive: [2] 0.104 | [12] 0.109

CEP120 (UniProt Q8N960)
inactive: [1] -0.043 | [2] -0.062 | [15] -0.101 | [12] 0.152 | [6] 0.171 | [14] 0.376 | [7] 0.114 | [16] 0.046 | [17] -0.101

CHD1 (UniProt O14646)
inactive: [2] -0.225 | [10] 0.009 | [11] 0.084

CDKN2AIPNL (UniProt Q96HQ2)
inactive: [13] -0.09

CENPV (UniProt Q7Z7K6)
inactive: [1] -0.051 | [2] -0.162 | [10] 0.117 | [11] 0.406 | [6] 0.205 | [14] 0.111

CEP83 (UniProt Q9Y592)
inactive: [18] 0.056 | [12] 0.008 | [19] 0.182 | [20] -0.073

CDK5RAP2 (UniProt Q96SN8)
inactive: [2] -0.219 | [15] 0.108 | [12] -0.138 | [7] 0.202 | [16] 0.102 | [17] -0.59

CENPQ (UniProt Q7L2Z9)
inactive: [13] -0.01 | [2] 0.069 | [3] -0.032 | [4] -0.019 | [5] -0.065 | [6] 0.182 | [14] 0.174 | [7] 0.256 | [8] 0.134 | [9] -0.081

CEND1 (UniProt Q8N111)
inactive: [1] 0.039 | [3] -0.048 | [6] 0.015 | [7] 0.081 | [8] -0.064

CDKN1B (UniProt P46527)
inactive: [1] 0.028 | [13] -0.083 | [2] 0.393 | [10] 0.036 | [15] 0.025 | [4] 0.06 | [11] 0.073 | [5] 0.29 | [6] 0.129 | [8] -0.247 | [16] 0.163 | [9] -0.298 | [17] 0.028

CEP57 (UniProt Q86XR8)
inactive: [13] -0.289 | [10] 0.105 | [11] -0.113 | [6] -0.144 | [14] 0.04

CENPM (UniProt Q9NSP4)
inactive: [3] -0.117 | [4] 0.065 | [5] -0.021 | [8] 0.044 | [9] -0.425

CFL1 (UniProt E9PP50)
inactive: [13] 0.383 | [3] 0.071 | [10] -0.143 | [11] 0.045 | [8] 0.251

CDC42EP2 (UniProt O14613)
inactive: [2] 0.384 | [3] 0.024 | [12] -0.198 | [6] -0.044 | [7] 0.14 | [8] -0.051

CEFIP (UniProt Q711Q0)
inactive: [1] -0.043 | [2] -0.089 | [3] 0 | [15] -0.208 | [12] -0.127 | [8] -0.182 | [16] -0.224 | [17] -0.147

CEP41 (UniProt Q9BYV8)
inactive: [18] -0.073 | [3] 0.14 | [6] -0.011 | [8] -0.104 | [19] 0.246 | [20] -0.301

CDCA8 (UniProt Q53HL2)
inactive: [6] 0.035
